No constants are given. Whether binding was seen depends on the method and setting. In cells and extracts the contact can be indirect. For some assays here: Binding can be weak; no strength is given. Tags and fused reporters may be left off the sequences shown.
How the values were obtained:
[1] = biological target: GFP-fused MBD2 COOH-terminus (HEK 293) (mouse); test: co-IP; HEK293-EBNA cells co-expressing GFP- and RFP-tagged domains; lysis, GBP-bound beads and washes in buffer with 200 mM NaCl; Western blot with anti RFP
[2] = biological target: GFP-fused MBD2 COOH-terminus (HEK 293) (mouse); test: condition: only complexes washed with buffer supplemented with 300 mM NaCl; co-IP; HEK293-EBNA cells co-expressing GFP- and RFP-tagged domains; lysis and GBP-bound beads in 200 mM NaCl; complexes washed with buffer containing 300 mM NaCl; Western blot with anti RFP

binding [1]: binds | binding [2]: no binding
B1: RFP-fused MBD2 NTD (HEK 293) (domain or fragment, UniProt Q9Z2E1 1-152)
chain: MRAHPGGGRCCPEQEEGESAAGGSGAGGDSAIEQGGQGSALAPSPVSGVRREGARGGGRGRGRWKQAARGGGVCGRGRGRGRGRGRGRGRGRGRGRPQSGGSGLGGDGGGGAGGCGGGSGGGVAPRRDPVPFPSGSSGPGPRGPRATESGKR

Reference: article PMC3546041
